Measured values reported in the supplement of paper PMC12823440, “Inhibitors supercharge kinase turnover through native proteolytic circuits” (Nature, 2025).
Structures can show the parent of a compound that is named as a salt. Some of the results follow. Hit calls seldom repeat between salt and free forms of one compound.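 Kinases, fused to nanoluciferase, were expressed in K562 cells; luminescence was measured every 4 h from 2 to 18 h as percent of control (DMSO = 100%, positive control = 0%). A time point is decreased if signal falls significantly (2 sigma). Hits were called by the authors by a rule that is not shown; the count of time points alone does not decide it.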

Chains of the proteins cited; added tags and fusions are not shown. Lines headed by an entry give the natural chain unless they say otherwise; changes in a name come on top.
UniProt Q05397, whole entry, looked up: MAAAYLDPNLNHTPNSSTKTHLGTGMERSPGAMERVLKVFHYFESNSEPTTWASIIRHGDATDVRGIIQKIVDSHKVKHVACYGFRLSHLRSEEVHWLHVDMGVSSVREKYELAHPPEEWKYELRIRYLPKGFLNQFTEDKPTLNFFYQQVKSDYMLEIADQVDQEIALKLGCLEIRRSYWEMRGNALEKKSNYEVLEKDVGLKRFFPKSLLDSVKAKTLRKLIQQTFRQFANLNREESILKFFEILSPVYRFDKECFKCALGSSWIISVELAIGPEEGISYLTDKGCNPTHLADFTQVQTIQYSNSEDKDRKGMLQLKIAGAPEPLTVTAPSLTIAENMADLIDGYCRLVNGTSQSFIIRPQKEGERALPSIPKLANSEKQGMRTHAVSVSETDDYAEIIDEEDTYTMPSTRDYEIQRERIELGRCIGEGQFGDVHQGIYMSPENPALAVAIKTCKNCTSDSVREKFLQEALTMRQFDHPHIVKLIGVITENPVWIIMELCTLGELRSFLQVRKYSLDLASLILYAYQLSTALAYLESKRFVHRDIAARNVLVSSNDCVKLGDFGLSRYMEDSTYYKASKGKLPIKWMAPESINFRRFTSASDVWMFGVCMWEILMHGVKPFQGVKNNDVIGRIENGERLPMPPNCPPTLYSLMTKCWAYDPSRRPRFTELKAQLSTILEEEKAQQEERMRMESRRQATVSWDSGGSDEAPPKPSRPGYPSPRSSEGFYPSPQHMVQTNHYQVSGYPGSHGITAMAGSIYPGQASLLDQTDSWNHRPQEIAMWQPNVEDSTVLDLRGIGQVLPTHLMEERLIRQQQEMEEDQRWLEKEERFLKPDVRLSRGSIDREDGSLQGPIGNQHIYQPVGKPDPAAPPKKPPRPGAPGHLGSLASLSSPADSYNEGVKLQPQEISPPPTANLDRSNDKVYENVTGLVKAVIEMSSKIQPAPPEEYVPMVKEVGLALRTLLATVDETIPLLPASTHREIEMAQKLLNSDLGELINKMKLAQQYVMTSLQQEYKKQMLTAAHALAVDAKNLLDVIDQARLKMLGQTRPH
UniProt P07949, whole entry, looked up: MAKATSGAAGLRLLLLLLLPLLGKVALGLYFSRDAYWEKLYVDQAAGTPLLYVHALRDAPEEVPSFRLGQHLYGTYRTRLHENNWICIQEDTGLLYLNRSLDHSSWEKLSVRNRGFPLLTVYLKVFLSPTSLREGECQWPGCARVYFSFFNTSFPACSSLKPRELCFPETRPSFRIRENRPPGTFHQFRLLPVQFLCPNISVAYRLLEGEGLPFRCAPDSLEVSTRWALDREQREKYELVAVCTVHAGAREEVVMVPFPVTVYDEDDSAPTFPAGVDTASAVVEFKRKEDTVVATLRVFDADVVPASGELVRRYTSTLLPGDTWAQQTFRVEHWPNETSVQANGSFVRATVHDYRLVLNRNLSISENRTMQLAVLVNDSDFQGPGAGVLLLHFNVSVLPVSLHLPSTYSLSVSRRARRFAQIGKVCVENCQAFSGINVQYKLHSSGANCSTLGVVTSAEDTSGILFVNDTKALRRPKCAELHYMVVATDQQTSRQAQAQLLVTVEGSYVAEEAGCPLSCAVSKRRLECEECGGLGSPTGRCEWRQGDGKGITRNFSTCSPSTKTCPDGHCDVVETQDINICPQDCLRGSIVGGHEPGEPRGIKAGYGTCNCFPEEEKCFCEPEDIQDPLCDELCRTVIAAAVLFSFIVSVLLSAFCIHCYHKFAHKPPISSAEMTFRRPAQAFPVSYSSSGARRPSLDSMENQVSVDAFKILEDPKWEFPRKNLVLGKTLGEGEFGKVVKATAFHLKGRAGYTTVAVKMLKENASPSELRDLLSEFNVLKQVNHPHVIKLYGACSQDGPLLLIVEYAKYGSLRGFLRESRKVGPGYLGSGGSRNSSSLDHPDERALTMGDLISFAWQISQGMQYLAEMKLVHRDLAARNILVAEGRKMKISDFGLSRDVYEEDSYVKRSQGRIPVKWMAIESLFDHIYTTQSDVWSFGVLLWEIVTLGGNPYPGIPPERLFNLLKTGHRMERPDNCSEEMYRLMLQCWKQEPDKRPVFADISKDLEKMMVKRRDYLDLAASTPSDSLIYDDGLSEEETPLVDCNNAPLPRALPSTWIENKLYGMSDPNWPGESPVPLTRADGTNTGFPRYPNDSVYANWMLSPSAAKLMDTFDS
UniProt P07949, whole entry M918T, looked up: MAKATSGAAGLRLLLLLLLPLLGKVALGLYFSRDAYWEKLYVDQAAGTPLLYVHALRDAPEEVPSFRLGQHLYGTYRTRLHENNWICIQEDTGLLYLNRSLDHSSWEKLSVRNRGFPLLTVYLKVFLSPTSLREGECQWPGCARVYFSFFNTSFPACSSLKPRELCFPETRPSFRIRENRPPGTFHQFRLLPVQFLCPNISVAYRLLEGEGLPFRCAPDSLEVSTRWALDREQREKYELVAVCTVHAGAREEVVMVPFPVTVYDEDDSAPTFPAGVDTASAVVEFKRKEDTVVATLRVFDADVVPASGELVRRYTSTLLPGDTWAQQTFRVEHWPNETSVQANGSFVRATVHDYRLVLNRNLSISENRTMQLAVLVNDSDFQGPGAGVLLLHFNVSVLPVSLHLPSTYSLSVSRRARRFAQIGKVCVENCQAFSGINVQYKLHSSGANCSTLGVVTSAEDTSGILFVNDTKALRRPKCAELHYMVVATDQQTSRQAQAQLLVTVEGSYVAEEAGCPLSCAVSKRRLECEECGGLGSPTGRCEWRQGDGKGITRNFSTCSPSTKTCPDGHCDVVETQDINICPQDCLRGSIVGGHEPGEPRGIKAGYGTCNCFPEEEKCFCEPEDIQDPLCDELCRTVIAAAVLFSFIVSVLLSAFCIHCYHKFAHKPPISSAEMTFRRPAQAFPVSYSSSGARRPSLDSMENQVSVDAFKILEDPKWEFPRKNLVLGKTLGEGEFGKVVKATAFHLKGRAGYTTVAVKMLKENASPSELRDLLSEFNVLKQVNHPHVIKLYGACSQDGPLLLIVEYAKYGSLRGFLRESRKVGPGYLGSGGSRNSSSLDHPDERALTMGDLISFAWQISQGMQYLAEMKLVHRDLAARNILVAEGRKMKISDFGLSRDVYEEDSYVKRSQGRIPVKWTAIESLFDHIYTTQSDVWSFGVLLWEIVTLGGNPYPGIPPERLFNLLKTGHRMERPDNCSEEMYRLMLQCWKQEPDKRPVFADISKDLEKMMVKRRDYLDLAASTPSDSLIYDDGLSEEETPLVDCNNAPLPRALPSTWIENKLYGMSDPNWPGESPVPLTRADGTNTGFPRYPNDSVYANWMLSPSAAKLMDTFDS
UniProt Q01974, whole entry: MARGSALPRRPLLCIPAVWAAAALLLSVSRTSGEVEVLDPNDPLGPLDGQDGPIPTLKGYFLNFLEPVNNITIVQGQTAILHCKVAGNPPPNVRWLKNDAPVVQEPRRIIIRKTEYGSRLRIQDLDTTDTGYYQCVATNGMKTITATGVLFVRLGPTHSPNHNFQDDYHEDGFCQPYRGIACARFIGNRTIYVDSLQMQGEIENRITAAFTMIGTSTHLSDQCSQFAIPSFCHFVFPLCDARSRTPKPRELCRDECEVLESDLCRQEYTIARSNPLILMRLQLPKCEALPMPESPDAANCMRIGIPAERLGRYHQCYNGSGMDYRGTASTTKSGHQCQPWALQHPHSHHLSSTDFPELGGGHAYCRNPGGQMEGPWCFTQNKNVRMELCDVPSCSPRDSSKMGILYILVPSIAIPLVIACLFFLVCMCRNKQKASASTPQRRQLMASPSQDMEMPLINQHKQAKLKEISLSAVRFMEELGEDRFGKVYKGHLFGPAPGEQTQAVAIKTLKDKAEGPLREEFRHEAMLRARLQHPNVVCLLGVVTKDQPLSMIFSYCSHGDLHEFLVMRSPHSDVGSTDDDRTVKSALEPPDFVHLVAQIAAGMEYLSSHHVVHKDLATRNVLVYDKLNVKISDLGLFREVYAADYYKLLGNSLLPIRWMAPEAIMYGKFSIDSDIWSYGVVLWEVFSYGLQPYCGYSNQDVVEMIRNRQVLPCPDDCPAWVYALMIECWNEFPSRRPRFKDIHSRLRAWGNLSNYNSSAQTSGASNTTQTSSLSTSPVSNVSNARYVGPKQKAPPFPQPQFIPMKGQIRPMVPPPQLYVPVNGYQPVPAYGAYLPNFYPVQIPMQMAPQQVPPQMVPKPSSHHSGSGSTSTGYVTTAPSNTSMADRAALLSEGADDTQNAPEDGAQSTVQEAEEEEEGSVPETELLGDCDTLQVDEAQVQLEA
UniProt Q15418, whole entry: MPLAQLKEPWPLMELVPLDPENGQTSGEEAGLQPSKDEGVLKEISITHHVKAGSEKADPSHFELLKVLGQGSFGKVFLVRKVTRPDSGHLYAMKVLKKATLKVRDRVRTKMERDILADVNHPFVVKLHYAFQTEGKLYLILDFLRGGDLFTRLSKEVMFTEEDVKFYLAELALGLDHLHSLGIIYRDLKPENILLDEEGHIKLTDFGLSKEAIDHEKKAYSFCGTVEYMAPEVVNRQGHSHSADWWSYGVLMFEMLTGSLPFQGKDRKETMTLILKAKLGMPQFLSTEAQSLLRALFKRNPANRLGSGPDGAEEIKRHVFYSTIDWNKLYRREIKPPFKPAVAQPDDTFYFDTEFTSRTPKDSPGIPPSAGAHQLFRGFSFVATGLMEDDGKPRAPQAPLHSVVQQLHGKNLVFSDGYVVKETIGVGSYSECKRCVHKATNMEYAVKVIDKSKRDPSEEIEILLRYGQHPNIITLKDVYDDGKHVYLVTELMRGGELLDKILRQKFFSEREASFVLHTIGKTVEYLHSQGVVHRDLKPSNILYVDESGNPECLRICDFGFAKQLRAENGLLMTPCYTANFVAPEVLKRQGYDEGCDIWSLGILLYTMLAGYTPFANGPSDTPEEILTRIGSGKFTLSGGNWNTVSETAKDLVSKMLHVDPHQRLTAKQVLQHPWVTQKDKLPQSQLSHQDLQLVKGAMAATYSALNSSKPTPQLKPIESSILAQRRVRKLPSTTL
UniProt Q9NYA1, whole entry: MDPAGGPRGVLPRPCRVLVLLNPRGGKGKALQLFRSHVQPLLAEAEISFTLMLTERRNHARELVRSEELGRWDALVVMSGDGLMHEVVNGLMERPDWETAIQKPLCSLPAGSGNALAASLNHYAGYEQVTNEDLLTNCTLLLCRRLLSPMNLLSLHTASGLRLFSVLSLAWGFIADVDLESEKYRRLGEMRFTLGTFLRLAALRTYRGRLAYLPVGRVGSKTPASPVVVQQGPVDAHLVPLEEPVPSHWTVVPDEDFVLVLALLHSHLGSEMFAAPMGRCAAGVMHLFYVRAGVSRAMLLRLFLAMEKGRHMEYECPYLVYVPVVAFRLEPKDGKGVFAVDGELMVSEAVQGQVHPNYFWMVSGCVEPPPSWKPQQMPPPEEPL
UniProt Q15208: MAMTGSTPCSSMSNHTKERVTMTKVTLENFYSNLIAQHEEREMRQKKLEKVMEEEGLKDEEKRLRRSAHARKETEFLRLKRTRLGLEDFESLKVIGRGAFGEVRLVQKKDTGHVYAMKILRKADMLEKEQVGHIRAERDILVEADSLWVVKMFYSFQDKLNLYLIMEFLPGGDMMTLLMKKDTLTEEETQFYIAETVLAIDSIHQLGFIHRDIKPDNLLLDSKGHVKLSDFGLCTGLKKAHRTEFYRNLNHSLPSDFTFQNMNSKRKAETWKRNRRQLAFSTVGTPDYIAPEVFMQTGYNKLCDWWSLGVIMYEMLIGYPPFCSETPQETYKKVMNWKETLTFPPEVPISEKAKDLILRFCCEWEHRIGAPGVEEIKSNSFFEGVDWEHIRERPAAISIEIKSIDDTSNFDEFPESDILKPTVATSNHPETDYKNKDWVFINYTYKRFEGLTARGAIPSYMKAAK
UniProt P42680: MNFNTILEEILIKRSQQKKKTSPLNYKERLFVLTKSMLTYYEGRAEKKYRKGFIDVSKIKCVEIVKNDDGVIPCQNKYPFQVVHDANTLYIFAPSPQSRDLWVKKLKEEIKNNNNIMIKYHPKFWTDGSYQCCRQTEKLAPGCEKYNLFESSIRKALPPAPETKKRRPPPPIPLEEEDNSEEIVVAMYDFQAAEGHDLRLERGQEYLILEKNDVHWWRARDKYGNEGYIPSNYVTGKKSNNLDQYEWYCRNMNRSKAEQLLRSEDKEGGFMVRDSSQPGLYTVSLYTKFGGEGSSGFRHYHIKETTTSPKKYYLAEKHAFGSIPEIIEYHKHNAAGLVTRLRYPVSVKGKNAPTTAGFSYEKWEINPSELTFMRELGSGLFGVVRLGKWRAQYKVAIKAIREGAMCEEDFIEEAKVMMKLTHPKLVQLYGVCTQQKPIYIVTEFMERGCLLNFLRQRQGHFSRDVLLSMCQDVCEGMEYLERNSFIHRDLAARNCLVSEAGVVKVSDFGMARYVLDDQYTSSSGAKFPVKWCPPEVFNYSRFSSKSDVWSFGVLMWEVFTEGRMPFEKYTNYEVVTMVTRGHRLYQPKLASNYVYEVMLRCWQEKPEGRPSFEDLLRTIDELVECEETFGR

Tests used:
Test in all cases: number of time points (of 5) at which kinase-Nluc abundance scored as decreased, DMSO-normalised (count); higher = more persistent destabilization
Settings in all cases: K562; 2-18 h
[1] = target: PRKCA (UniProt P17252)
[2] = target: PTK2 (UniProt Q05397)
[3] = target: PTK2B (UniProt Q14289)
[4] = target: RAF1 (UniProt P04049)
[5] = target: RAF1_S257L (clone: RAF1_mut) (UniProt P04049)
[6] = target: RET (UniProt P07949)
[7] = target: RET_M918T (clone: RET_mut) (UniProt P07949)
[8] = target: RIOK1 (UniProt Q9BRS2)
[9] = target: RIPK1 (UniProt Q13546)
[10] = target: RIPK2 (UniProt O43353)
[11] = target: ROR2 (UniProt Q01974)
[12] = target: RPS6KA1 (UniProt Q15418)
[13] = target: SPHK1 (UniProt Q9NYA1)
[14] = target: SRC (UniProt P12931)
[15] = target: STK24 (UniProt Q9Y6E0)
[16] = target: STK38 (UniProt Q15208)
[17] = target: SYK (UniProt P43405)
[18] = target: TEC (UniProt P42680)
[19] = target: TYK2 (UniProt P29597)
[20] = target: ULK3 (UniProt Q6PHR2)

Structure (SMILES) | number of time points [1] | number of time points [2] | number of time points [3] | number of time points [4] | number of time points [5] | number of time points [6] | number of time points [7] | number of time points [8] | number of time points [9] | number of time points [10] | number of time points [11] | number of time points [12] | number of time points [13] | number of time points [14] | number of time points [15] | number of time points [16] | number of time points [17] | number of time points [18] | number of time points [19] | number of time points [20]
Cc1cc2sc(NC(=O)Cc3ccccc3)nc2cc1Cl (10 µM) | 0 | 0 | 0 | 0 | 0 | 0 | 0 | 0 | 0 | 0 | 0 | 0 | 0 | 0 | 0 | 0 | 0 | 0 | 0 | 0
Oc1cc(O)c2c(c1)OC1(c3ccc(O)c(O)c3)Oc3cc(O)c4c(c3C2C1O)OC(c1ccc(O)c(O)c1)C(O)C4 (stereo not given) [Procyanidin A1] (10 µM) | 0 | 0 | 0 | 0 | 0 | 0 | 0 | 0 | 0 | 0 | 0 | 0 | 0 | 0 | 0 | 0 | 0 | 0 | 0 | 0
N#Cc1c2nc3ccccc3nc2n2ccc(NC(=O)c3cccs3)cc12 (10 µM) | 0 | 0 | 0 | 0 | 0 | 0 | 0 | 0 | 0 | 0 | 0 | 0 | 0 | 0 | 0 | 0 | 0 | 0 | 0 | 0
O=C(Nc1nc2ccc(NC(=O)C34CC5CC(CC(C5)C3)C4)cc2s1)c1ccccc1 (10 µM) | 0 | 0 | 0 | 0 | 0 | 0 | 0 | 0 | 0 | 0 | 0 | 0 | 0 | 0 | 0 | 0 | 0 | 0 | 1 | 0
C=CC(=O)Nc1cc(Nc2nccc(-n3cc(CN(C)C)c(-c4ccccc4)n3)n2)c(OC)cc1N1CCOCC1 [Lazertinib] (10 µM) | 0 | 0 | 0 | 0 | 0 | 0 | 0 | 0 | 0 | 0 | 0 | 0 | 0 | 0 | 0 | 0 | 0 | 0 | 0 | 0
C=C[C@@](C)(/C=C/c1ccc(O)cc1)CCC=C(C)C [Bakuchiol] (10 µM) | 0 | 0 | 0 | 0 | 0 | 0 | 0 | 0 | 0 | 0 | 0 | 0 | 0 | 0 | 0 | 0 | 0 | 0 | 0 | 0
CCc1ccc(OCC(=O)Nc2ccc(F)c([N+](=O)[O-])c2)cc1 (10 µM) | 0 | 0 | 0 | 0 | 0 | 0 | 0 | 0 | 0 | 0 | 0 | 0 | 0 | 0 | 0 | 0 | 0 | 0 | 0 | 0
Cc1ccc(NC(=O)c2ccc(CN(CCN(C)C)C(=O)c3cccnc3)cc2)cc1Nc1nccc(-c2cccnc2)n1 [PDGFRα kinase inhibitor 1] (10 µM) | 0 | 0 | 0 | 0 | 0 | 0 | 0 | 0 | 0 | 0 | 0 | 0 | 0 | 0 | 0 | 0 | 0 | 0 | 0 | 0
O[C@@H]1CO[C@H]2[C@@H]1OC[C@H]2Oc1nc2nc(-c3ccc(-c4ccccc4)cc3)c(Cl)cc2[nH]1 (10 µM) | 0 | 0 | 0 | 0 | 0 | 0 | 0 | 0 | 0 | 0 | 0 | 0 | 0 | 0 | 0 | 0 | 0 | 0 | 0 | 0
Nc1ncnc2c1c(COc1cccc(Cl)c1)nn2C1CCOCC1 (10 µM) | 0 | 0 | 0 | 0 | 0 | 0 | 0 | 0 | 0 | 0 | 0 | 0 | 0 | 0 | 0 | 0 | 0 | 0 | 0 | 0
COc1nn(C)cc1Nc1nccc(-c2c[nH]c3c(NC(=O)[C@@H](C)N4CCN(C)CC4)cccc23)n1 (10 µM) | 0 | 0 | 0 | 0 | 0 | 0 | 0 | 0 | 0 | 0 | 0 | 0 | 0 | 0 | 0 | 0 | 0 | 0 | 0 | 0
CC/C(=N\NC(=O)c1ccnc(NCCCN2CCOCC2)c1)c1ccc(Cl)cc1O (2.5 µM) | 0 | 0 | 0 | 0 | 0 | 0 | 0 | 0 | 0 | 0 | 0 | 0 | 0 | 0 | 0 | 0 | 0 | 0 | 0 | 0
COc1ccc2cc3[n+](cc2c1OC)CCc1cc(O)c(O)cc1-3 [Demethyleneberberine] (10 µM) | 0 | 0 | 0 | 0 | 0 | 0 | 0 | 0 | 0 | 0 | 0 | 0 | 0 | 0 | 0 | 0 | 0 | 0 | 0 | 0
COc1ccc(-c2coc3cc(O)ccc3c2=O)cc1 [Formononetin] (10 µM) | 0 | 0 | 0 | 0 | 1 | 0 | 0 | 0 | 0 | 0 | 0 | 0 | 0 | 0 | 0 | 0 | 0 | 0 | 0 | 0
O=C(Nc1nc(=O)n(Cc2ccc(Cl)cc2)s1)c1ccc(Cl)cc1 (10 µM) | 0 | 0 | 0 | 0 | 0 | 0 | 0 | 0 | 0 | 0 | 0 | 0 | 0 | 0 | 0 | 0 | 0 | 0 | 0 | 0
O=C1NC(=O)/C(=C/c2ccc3nccc(-c4ccncc4)c3c2)S1 (10 µM) | 0 | 2 | 0 | 0 | 0 | 0 | 0 | 0 | 0 | 0 | 0 | 0 | 0 | 0 | 0 | 0 | 0 | 0 | 4 | 0
Cc1ccc(-c2csc3ncnc(SCCC(=O)O)c23)cc1 (10 µM) | 0 | 0 | 0 | 0 | 0 | 0 | 0 | 0 | 0 | 0 | 0 | 0 | 0 | 0 | 0 | 0 | 0 | 0 | 0 | 0
NC(=O)c1cnc2[nH]ccc2c1N[C@@H]1[C@@H]2CC3C[C@H]1C[C@@](O)(C3)C2 [Peficitinib] (10 µM) | 0 | 1 | 0 | 2 | 3 | 0 | 1 | 1 | 3 | 3 | 0 | 0 | 0 | 0 | 0 | 1 | 0 | 3 | 4 | 0
CC(C)CNc1ccnc(NCc2csc(-c3ccccc3)n2)n1 [KHS101 hydrochloride] (2.5 µM) | 0 | 0 | 0 | 2 | 1 | 0 | 0 | 0 | 1 | 1 | 0 | 0 | 0 | 0 | 0 | 0 | 0 | 0 | 0 | 0
O=C1NC(=Nc2c(Cl)cccc2Cl)S/C1=C\c1ccc2nccnc2c1 (2.5 µM) | 0 | 0 | 0 | 0 | 0 | 0 | 0 | 0 | 0 | 0 | 0 | 0 | 0 | 0 | 0 | 0 | 0 | 0 | 0 | 2
CC[C@@](C)(Nc1ccnc(-c2c[nH]c3ncccc23)n1)C(=O)NCC(F)(F)F [Decernotinib] (10 µM) | 0 | 0 | 0 | 0 | 0 | 0 | 0 | 0 | 0 | 0 | 0 | 0 | 0 | 0 | 0 | 0 | 0 | 0 | 0 | 0
COc1cc(N2CCOCC2)ccc1NC(=O)c1csc(-c2cccnc2)n1 [IRAK inhibitor 6] (10 µM) | 0 | 0 | 0 | 0 | 0 | 0 | 0 | 0 | 0 | 0 | 0 | 0 | 0 | 0 | 0 | 0 | 0 | 0 | 0 | 0
O=C1O[C@H]([C@@H](O)CO)C(O)=C1OP(=O)(O)O [2-Phospho-L-ascorbic acid (trisodium)] (10 µM) | 0 | 0 | 0 | 0 | 0 | 0 | 0 | 0 | 0 | 0 | 0 | 0 | 0 | 0 | 0 | 0 | 0 | 0 | 0 | 0
CC(C)(C)n1nc(Cc2ccccc2O)c2c(N)ncnc21 (10 µM) | 0 | 2 | 0 | 1 | 0 | 0 | 0 | 0 | 0 | 0 | 0 | 0 | 0 | 0 | 0 | 0 | 0 | 0 | 3 | 0

Looked up one by one from above:
Structure (SMILES) | number of time points [1] | number of time points [2] | number of time points [3] | number of time points [4] | number of time points [5] | number of time points [6] | number of time points [7] | number of time points [8] | number of time points [9] | number of time points [10] | number of time points [11] | number of time points [12] | number of time points [13] | number of time points [14] | number of time points [15] | number of time points [16] | number of time points [17] | number of time points [18] | number of time points [19] | number of time points [20]
CC(C)(C)n1nc(Cc2ccccc2O)c2c(N)ncnc21 (10 µM) | 0 | 2 | 0 | 1 | 0 | 0 | 0 | 0 | 0 | 0 | 0 | 0 | 0 | 0 | 0 | 0 | 0 | 0 | 3 | 0
N#Cc1c2nc3ccccc3nc2n2ccc(NC(=O)c3cccs3)cc12 (10 µM) | 0 | 0 | 0 | 0 | 0 | 0 | 0 | 0 | 0 | 0 | 0 | 0 | 0 | 0 | 0 | 0 | 0 | 0 | 0 | 0
